Measurements published in PMC12721332.

How the values were obtained:
Experiment in all cases: co-IP; Flag-CDK11 wild type or T-loop mutants precipitated on Flag agarose M2 from HCT116 lysate (300 mM KCl lysis buffer), washed with high-salt buffer (500 mM KCl); immunoblot
[1] = target: flag-tagged CDK11 T595A (human)
[2] = target: flag-tagged CDK11 T595E (human)
[3] = target: flag-tagged wild-type CDK11 (human)
[4] = target: flag-tagged CDK11 T595D (human)

B1: CCNL1 (protein, UniProt Q9UK58 1-526)
chain: MASGPHSTATAAAAASSAAPSAGGSSSGTTTTTTTTTGGILIGDRLYSEVSLTIDHSLIPEERLSPTPSMQDGLDLPSETDLRILGCELIQAAGILLRLPQVAMATGQVLFHRFFYSKSFVKHSFEIVAMACINLASKIEEAPRRIRDVINVFHHLRQLRGKRTPSPLILDQNYINTKNQVIKAERRVLKELGFCVHVKHPHKIIVMYLQVLECERNQTLVQTAWNYMNDSLRTNVFVRFQPETIACACIYLAARALQIPLPTRPHWFLLFGTTEEEIQEICIETLRLYTRKKPNYELLEKEVEKRKVALQEAKLKAKGLNPDGTPALSTLGGFSPASKPSSPREVKAEEKSPISINVKTVKKEPEDRQQASKSPYNGVRKDSKRSRNSRSASRSRSRTRSRSRSHTPRRHYNNRRSRSGTYSSRSRSRSRSHSESPRRHHNHGSPHLKAKHTRDDLKSSNRHGHKRKKSRSRSQSKSRDHSDAAKKHRHERGHHRDRRERSRSFERSHKSKHHGGSRSGHGRHRR
With B1 the binding [1] was “no binding”, the binding [2] was “no binding” and the binding [3] was “binds”. The binding [4] was “no binding”.

These are yes or no findings as the source states them, for the method shown. Binding seen in cells or lysates may run through a third protein. For some of these results: A result given as binding can be weak or reduced; the word gives no strength.
